# Results from PubChem BioAssay AID602296 (Broad Institute, 2012).
# The whole screen tested about 2,000 compounds, of which about 190 (9.5%) were called active. Inconclusive results (about 14%) are left out.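 Rule for the calls: active = fitted activation curve crossing 40% at a concentration no higher than the sample's top valid tested dose; inconclusive = flat fitted curve at 30% to 70% activation, or poor curve fit; inactive = signal decrease, flat curve within 30%, or the rest.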 Most of the strongest results are missing from this list.
# Assay: sustained heat shock response element induction – cell-based, mouse, luciferase, cherry-pick, dose, confirmation (AID 602296);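 note: test compounds applied by themselves with no MG132 co-treatment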
# Conditions: NIH3T3-HGL HSF-1 response element luciferase, 48 h; at 26 µM (top of the series) unless noted
row,Structure (SMILES),activation
1,COc1cccc(CNc2nc3ccccc3n2C(C)C)c1O,inactive: -2.24%
2,Clc1ccccc1CN(Cc1ccco1)Cc1nnnn1C1CCCC1,inactive: -13.9%
3,Cc1cccc(N(C(=O)c2ccc(CN3CCOCC3)o2)C(C(=O)NC(C)(C)C)c2ccc(F)cc2)c1 (centres undefined),inactive: -14.6%
4,O=C(COC(=O)C1CCN(S(=O)(=O)c2cccc3cccnc23)CC1)c1ccc([N+](=O)[O-])cc1,inactive: -12.1%
5,c1ccc(Nc2c(-c3ccco3)nc3ccccn23)cc1,inactive: 10.6%
6,N#C/C(=C\c1cn(Cc2ccccc2)c2ccccc12)C(=O)NCc1ccco1,inactive: -9.67%
7,CCCCCn1c(N2CCN(c3cccc(Cl)c3)CC2)nc2c1c(=O)[nH]c(=O)n2C,inactive: -78.6%
8,COc1ccc(C(=O)NC2CCN(C(=S)NCc3ccco3)CC2)cc1,inactive: -5.5%
9,COCC(C)NC(=O)/C(=C/c1ccccc1)c1ccccc1 (centres undefined),inactive: -20.2%
10,Cc1cc(C)cc(OCC(=O)O/N=C(\N)Cc2ccc([N+](=O)[O-])cc2)c1,inactive: 2.64%
11,Nc1cc[n+](CC(=O)Nc2ccccc2)cc1,inactive: -6.73%
12,O=C(Nc1cccc(Cl)c1)N(Cc1nc2ccccc2c(=O)[nH]1)C1CCCC1,inactive: 23.3%
13,O=C(/C=C/c1cccc([N+](=O)[O-])c1)NC(=S)Nc1ccc(CN2CCOCC2)cc1,inactive: -17.4%
14,O=C(c1ccc(Cl)c(S(=O)(=O)NCc2ccco2)c1)N1CCN(c2ccccc2F)CC1,inactive: 0.244%
15,CC(C)(C)NC(=O)C(c1ccncc1)N(C(=O)Cn1nnc(-c2cccs2)n1)C1CCCCC1 (centres undefined),inactive: -8.31%
16,CC(=O)Nc1ccc(Nc2nc3c(S(=O)(=O)c4ccc(C)c(C)c4)nnn3c3ccccc23)cc1,inactive: 6.09%
17,Cc1cc2occ(CC(=O)NCc3cccs3)c2cc1C(C)C,inactive: -46.7%
18,COc1ccc(NC(=O)c2nn(C)c(=O)c3ccccc23)cc1S(=O)(=O)Nc1ccccc1Cl,inactive: -50.5%
19,COc1ccc(/C=C2\SC(=S)N(CCC(=O)Nc3cccc(O)c3)C2=O)cc1,inactive: -2.93%
20,CC1CCCN(C(=O)c2ccccc2OC2CCN(S(C)(=O)=O)CC2)C1 (centres undefined),inactive: 0.657%
21,O=C1C=C(Nc2ccccc2C(=O)O)c2ccccc2C1=O,inactive: -48%
22,CCc1ccc(CN(C)C(=O)CCc2nc3ccccc3n(-c3ccc(OC)cc3)c2=O)cc1,inactive: -16.4%
23,COc1ccc(NC(=O)COc2cccc3c2CCN(Cc2cccnc2)C3=O)c(OC)c1,inactive: 5.52%
24,CC1(C)CC(CCN)(Cc2ccccc2Cl)CCO1 (centres undefined),inactive: -7.19%
25,CCOC(=O)c1cnc2ccc(OC)cc2c1Nc1ccc(N2CCN(C)CC2)cc1,inactive: -68%
26,Cc1cc(C)c(S(=O)(=O)N2CCCC(C(=O)NCCC3=CCCCC3)C2)c(C)c1 (centres undefined),inactive: -25.8%
27,O=C(O)CCc1ccc(-c2ccc(Br)cc2)n1Cc1ccco1,inactive: -6.11% [at 12 µM]

# An excerpt of these results, as tab-separated lines:
row	Structure (SMILES)	activation
20	CC1CCCN(C(=O)c2ccccc2OC2CCN(S(C)(=O)=O)CC2)C1 (centres undefined)	inactive: 0.657%
27	O=C(O)CCc1ccc(-c2ccc(Br)cc2)n1Cc1ccco1	inactive: -6.11% [at 12 µM]

# The results go on.

row,Structure (SMILES),activation
1,O=C(CN(C(=O)c1ccccc1Cl)C1CCCCC1)Nc1ccc(Cl)c([N+](=O)[O-])c1,inactive: -58.9% [at 12 µM]
2,CCc1ccc(NC(=O)COC(=O)/C=C/c2c(C)nn(C3CCS(=O)(=O)C3)c2Cl)cc1 (centres undefined),inactive: -19.6%
3,Cc1ccc(C(C(=O)NC2CCCCC2)N(C(=O)Cc2c[nH]c3ccccc23)c2ccccc2)o1 (centres undefined),inactive: -45.7%
4,COCCn1c(SCC(=O)NC2CCCCC2)nc2c(c1=O)SCC2,inactive: 8.51%
5,Cc1ccc(CC2SC(=Nc3ccccc3)N(c3ccccc3)C2=O)cc1 (centres undefined),inactive: -38.1%
6,CCCCSc1nc(C)cc(SCC(=O)N/N=C/c2cccc(OC)c2O)n1,inactive: -25.2%
7,Cc1nnc(SCC2=C(C(=O)O)N3C(=O)C(NC(=O)c4cccc(F)c4F)C3SC2)s1 (centres undefined),inactive: 16.7%
8,CCCCNC1C(CC)C(CCC)C(C#N)(C#N)C1(C#N)C#N (centres undefined),inactive: -20.6%
9,O=C(OC1CCOC1=O)c1cc(Cl)ccc1[N+](=O)[O-] (centres undefined),inactive: 4.06%
10,COC(=O)c1cc(S(=O)(=O)N2CCN(c3ccc([N+](=O)[O-])cc3)CC2)c[nH]1,inactive: -13.3%
11,CCCCN(C(=O)/C=C/c1ccco1)c1c(N)n(CCC)c(=O)[nH]c1=O,inactive: -5.28%
12,Cc1ccc(-c2nc3ccccc3[nH]2)cc1NC(=O)c1ccc2c(c1)OCO2,inactive: 3.91%
13,CCOC(=O)C(=Cc1c[nH]c2ccc(S(=O)(=O)N(C)C)cc12)C(=O)OCC,inactive: -8.52% [at 12 µM]
14,CC(C)CC(/C(O)=C(\C#N)c1nc2ccccc2[nH]1)N1C(=O)c2ccccc2C1=O (centres undefined),inactive: -39.8%
15,COc1ccc(-c2c(C)nn3c(NC4CCCC4)cc(C)nc23)cc1OC,inactive: -25.6%
16,CCOc1ccccc1CN1CCNC(=O)C1CC(=O)NCc1nccn1CC (centres undefined),inactive: 4.52%
17,CCOC(=O)c1c(C)[nH]c(C)c1S(=O)(=O)N1CCN(c2cccc(C)c2)C(C)C1 (centres undefined),inactive: -26.1%
18,COc1ccc(C)cc1NC(=O)C/C(C)=N/NC(=O)Cc1cccc2ccccc12,inactive: -16.4%
19,CC[C@@H]1[C@H]2CCCC(=O)N3CC[C@@H](C[C@@H]1Nc1ccccc1)[C@@H]23,inactive: 6.78%
20,Cc1cc(C)c(S(=O)(=O)Nc2cccc(/C=C/C(=O)O)c2)c(C)c1,inactive: 9.61%
21,O=C(COc1ccccc1)NC(=S)Nc1cccc2cc(O)ccc12,inactive: -35.6%
22,O=C(c1ccc(F)cc1F)C1CCN(c2ccc([N+](=O)[O-])cn2)CC1,inactive: -5.54%
23,CCOC(=O)COc1ccc(/C=C/[N+](=O)[O-])c(OCC(=O)OCC)c1,inactive: -102%
24,Cc1nn(C)c(Oc2ccccc2)c1CCNS(=O)(=O)c1ccc(Cl)cc1,inactive: -52.3%
25,CC(C)CCNC1c2ccccc2C(=O)N1Cc1ccccc1 (centres undefined),inactive: -1.01%
26,O=C(NC1C2CC3CC(C2)CC1C3)C1CC1 (centres undefined),inactive: -5.94%
27,CCOc1ccc(-n2c(=S)sc3c(=O)[nH]c(SCC(=O)NC(C)CC)nc32)cc1 (centres undefined),inactive: -4.48%
